PubChem BioAssay AID1508597 – Cure First, 2020

Screen: 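Survival screen with siRNA in ovarian cancer cells derived from patients, with or without rucaparib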 (primary screen)
Cell system: human ovarian carcinoma lines grown from tumours: OCI-P5x (papillary serous) and OCI-C5x (clear cell)
Reagent: siRNA pool against human genes, 1.25 pmol siRNA per well
Duration: 72 h or 96 h, depending on the cell culture
Treatment: rucaparib 20 µM (about IC30) or vehicle, present until read-out
Measured: 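Luminescent ATP-based viability assay read 72 or 96 h after transfection, depending on culture, given as normalised percent viability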
Direction: viability, normalised: higher = more viable cells remaining
Active means: 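a well counts as a hit if its normalised viability is under 80 percent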
Calls: active = viability under 80%; inactive = viability 80% or more
In all, the deposit lists about 2,100 reagents; below is a part drawn at random. 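Calls flag viability under 80% in either arm, not effects specific to rucaparib; the reference for percent is not stated.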 The record does not give: the 100% reference.

gene knocked down	rucaparib or vehicle	cell line	technical replicate	viability, normalised (%)	activity call
TTK (TTK protein kinase)	Rucaparib	OCI-C5x (clear cell)	1	49	active
TTK (TTK protein kinase)	Rucaparib	OCI-C5x (clear cell)	2	65.3	active
TTK (TTK protein kinase)	Rucaparib	OCI-C5x (clear cell)	3	41.8	active
TTK (TTK protein kinase)	Rucaparib	OCI-P5x (serous)	1	70.4	active
TTK (TTK protein kinase)	Rucaparib	OCI-P5x (serous)	2	64.5	active
TTK (TTK protein kinase)	Rucaparib	OCI-P5x (serous)	3	62.7	active
TTK (TTK protein kinase)	Vehicle	OCI-C5x (clear cell)	1	44.8	active
TTK (TTK protein kinase)	Vehicle	OCI-C5x (clear cell)	2	47.9	active
TTK (TTK protein kinase)	Vehicle	OCI-C5x (clear cell)	3	42	active
TTK (TTK protein kinase)	Vehicle	OCI-P5x (serous)	1	68.3	active
TTK (TTK protein kinase)	Vehicle	OCI-P5x (serous)	2	62.4	active
TTK (TTK protein kinase)	Vehicle	OCI-P5x (serous)	3	59.9	active
SETD3	Rucaparib	OCI-C5x (clear cell)	1	39.2	active
SETD3	Rucaparib	OCI-C5x (clear cell)	2	38.5	active
SETD3	Rucaparib	OCI-C5x (clear cell)	3	33.8	active
SETD3	Rucaparib	OCI-P5x (serous)	1	56.9	active
SETD3	Rucaparib	OCI-P5x (serous)	2	53.6	active
SETD3	Rucaparib	OCI-P5x (serous)	3	55	active
SETD3	Vehicle	OCI-C5x (clear cell)	1	44.5	active
SETD3	Vehicle	OCI-C5x (clear cell)	2	37.4	active
SETD3	Vehicle	OCI-C5x (clear cell)	3	39.2	active
SETD3	Vehicle	OCI-P5x (serous)	1	53.3	active
SETD3	Vehicle	OCI-P5x (serous)	2	54.6	active
SETD3	Vehicle	OCI-P5x (serous)	3	71.6	active

In a second layout: 4 of the entries above.
{"gene knocked down":"SETD3","rucaparib or vehicle":"Vehicle","cell line":"OCI-C5x (clear cell)","technical replicate":"2","viability, normalised (%)":37.4,"activity call":"active"}
{"gene knocked down":"SETD3","rucaparib or vehicle":"Vehicle","cell line":"OCI-C5x (clear cell)","technical replicate":"3","viability, normalised (%)":39.2,"activity call":"active"}
{"gene knocked down":"SETD3","rucaparib or vehicle":"Vehicle","cell line":"OCI-P5x (serous)","technical replicate":"1","viability, normalised (%)":53.3,"activity call":"active"}
{"gene knocked down":"SETD3","rucaparib or vehicle":"Vehicle","cell line":"OCI-P5x (serous)","technical replicate":"2","viability, normalised (%)":54.6,"activity call":"active"}
